Laboratory results reported in PubChem BioAssay AID977630 (Broad Institute, 2014).
In all, about 1,600 compounds went through this assay and fewer than 10 were called active. All entries are inconclusive by the source's own rule. Clear calls are listed elsewhere.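 How the source made its calls: active means Normal-ribosome green reporter loss at least double humanized-ribosome red reporter loss, with overall culture growth inhibition under a set limit; inconclusive means no clear call, values can overlap the other calls; inactive means the rest.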

Test: E. coli growth inhibition, wild-type GFP versus H38 humanized RFP strain – H38 mutant RFP vs wild-type GFP, cherry-pick, dose response (AID 977630)
Conditions: mixed culture, 24 h; at 50 µM (top of the series)

SMILES	activity change, negative = inhibition
O=[N+]([O-])c1cc([N+](=O)[O-])c(Nc2ccccn2)c([N+](=O)[O-])c1	inconclusive: -8.07
